Measurements from publication PMC3127822.
Results are given in words; binding and its absence hold for the method and conditions named. Binding seen in cells or lysates may run through a third protein. Some results given as binding are weak or reduced against the parent protein; the word gives no strength. Where a sequence is shown, tags or fusion partners need not be part of it.

Molecular target: T1, recombinant glutathione S-transferase (GST) NudE (UniProt Q9CZA6)
T1 sequence: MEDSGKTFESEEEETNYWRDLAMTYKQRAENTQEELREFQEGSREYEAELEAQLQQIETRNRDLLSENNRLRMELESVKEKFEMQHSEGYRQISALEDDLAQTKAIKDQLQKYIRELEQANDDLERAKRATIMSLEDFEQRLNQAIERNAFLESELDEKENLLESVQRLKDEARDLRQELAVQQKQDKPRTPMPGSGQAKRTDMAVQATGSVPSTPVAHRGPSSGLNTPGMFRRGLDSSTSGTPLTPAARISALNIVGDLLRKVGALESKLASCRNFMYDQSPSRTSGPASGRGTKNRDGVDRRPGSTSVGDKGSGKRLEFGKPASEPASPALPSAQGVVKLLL
Test: pull-down; 1 ug/ul GST-NudE or GST-CC1 with glutathione agarose 4B and pre-cleared whole brain lysate of P0 wild-type or Loa/Loa mice; phosphate-glutamate buffer (10 mM sodium phosphate, 100 mM sodium glutamate, pH 7.0, 1 mM MgSO4, 1 mM EDTA, 1 mM DTT, 0.2% NP-40), 4°C, 2 hours; western blot of supernatants and pellets; only the target purified

B1: LIS1 (protein, UniProt P63005 1-410)
chain: MVLSQRQRDELNRAIADYLRSNGYEEAYSVFKKEAELDMNEELDKKYAGLLEKKWTSVIRLQKKVMELESKLNEAKEEFTSGGPLGQKRDPKEWIPRPPEKYALSGHRSPVTRVIFHPVFSVMVSASEDATIKVWDYETGDFERTLKGHTDSVQDISFDHSGKLLASCSADMTIKLWDFQGFECIRTMHGHDHNVSSVAIMPNGDHIVSASRDKTIKMWEVQTGYCVKTFTGHREWVRMVRPNQDGTLIASCSNDQTVRVWVVATKECKAELREHEHVVECISWAPESSYSSISEATGSETKKSGKPGPFLLSGSRDKTIKMWDVSTGMCLMTLVGHDNWVRGVLFHSGGKFILSCADDKTLRVWDYKNKRCMKTLNAHEHFVTSLDFHKTAPYVVTGSVDQTVKVWECR
binding: binds
